PubChem BioAssay AID1159584, Peter MacCallum Cancer Centre – 2016
Purpose: 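Genes whose loss is lethal only together with E-cadherin loss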 (primary screen). System: human MCF10A breast epithelial cells, parental and CDH1-null. Reagent: siRNA against human genes. Read-out: 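ATP luminescence (CellTiter-Glo) viability per line relative to mean mock wells over all plates, and the ratio of CDH1-null to parental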. Reading the numbers: CDH1-null / parental viability ratio: higher = CDH1-null cells survive relatively better than parental.
The deposit covers about 18,000 reagents; below is a random part of them. Not all columns of the deposit are shown. The record does not give: the amount of reagent, the time to read-out.

NEIL3 (GeneID 55247) | CDH1-null / parental viability ratio: 1.06
LNPK (GeneID 80856) | CDH1-null / parental viability ratio: 1.05
CCDC42 (GeneID 146849) | CDH1-null / parental viability ratio: 1.22
XYLT1 (GeneID 64131) | CDH1-null / parental viability ratio: 0.71
CPB1 (GeneID 1360) | CDH1-null / parental viability ratio: 1.06
FHL1 (GeneID 2273) | CDH1-null / parental viability ratio: 1.03
TRAT1 (GeneID 50852) | CDH1-null / parental viability ratio: 1.85
MFRP (GeneID 83552) | CDH1-null / parental viability ratio: 0.89
M1AP (GeneID 130951) | CDH1-null / parental viability ratio: 1.09
GAS2L2 (GeneID 246176) | CDH1-null / parental viability ratio: 0.86
NLRP1 (GeneID 22861) | CDH1-null / parental viability ratio: 0.77
COX14 (GeneID 84987) | CDH1-null / parental viability ratio: 1.34
STIM2 (GeneID 57620) | CDH1-null / parental viability ratio: 0.69
KTN1 (GeneID 3895) | CDH1-null / parental viability ratio: 1
PPFIBP1 (GeneID 8496) | CDH1-null / parental viability ratio: 0.97
MYG1 (GeneID 60314) | CDH1-null / parental viability ratio: 0.73
JRK (GeneID 8629) | CDH1-null / parental viability ratio: 1.04
ILDR2 (GeneID 387597) | CDH1-null / parental viability ratio: 0.9
ARHGEF39 (GeneID 84904) | CDH1-null / parental viability ratio: 0.82
TMEM150C (GeneID 441027) | CDH1-null / parental viability ratio: 1.1
TRABD (GeneID 80305) | CDH1-null / parental viability ratio: 0.62
P2RY12 (GeneID 64805) | CDH1-null / parental viability ratio: 0.76
PDLIM3 (GeneID 27295) | CDH1-null / parental viability ratio: 1.21
HSPA4L (GeneID 22824) | CDH1-null / parental viability ratio: 0.93
SLC25A14 (GeneID 9016) | CDH1-null / parental viability ratio: 1.26
EXOSC1 (GeneID 51013) | CDH1-null / parental viability ratio: 1.11
ADRM1 (GeneID 11047) | CDH1-null / parental viability ratio: 0.96
SS18 (GeneID 6760) | CDH1-null / parental viability ratio: 0.87
GCG (GeneID 2641) | CDH1-null / parental viability ratio: 1.28
ZNF490 (GeneID 57474) | CDH1-null / parental viability ratio: 0.44
CCDC3 (GeneID 83643) | CDH1-null / parental viability ratio: 1.21
H2BC11 (GeneID 8970) | CDH1-null / parental viability ratio: 1.03
PRR11 (GeneID 55771) | CDH1-null / parental viability ratio: 0.94
C2orf66 (GeneID 401027) | CDH1-null / parental viability ratio: 1.25
LANCL2 (GeneID 55915) | CDH1-null / parental viability ratio: 1.07

Targets listed so far whose target name begins with L or l:
LNPK (GeneID 80856) | CDH1-null / parental viability ratio: 1.05
LANCL2 (GeneID 55915) | CDH1-null / parental viability ratio: 1.07
